Values of other authors as cited in patent EP0396400A1, “Microbial transformation product” (Merck & Co., Inc., priority 1989, dated 1990).
For at least one compound, name, drawing or mass did not settle the structure.

Conditions: reputed; immunosuppressant; cited from earlier work

For C=CC[C@@H]1/C=C(\C)C[C@H](C)C[C@H](OC)[C@H]2O[C@@](O)(C(=O)C(=O)N3CCCC[C@H]3C(=O)O[C@H](/C(C)=C/[C@@H]3CC[C@@H](O)[C@H](OC)C3)[C@H](C)[C@@H](O)CC1=O)[C@H](C)C[C@@H]2OC [L-679,934], the “effectiveness compared with cyclosporin” value is listed as 100 times.
